The record followed here is publication PMC7819943, “Rice protein-binding microarrays: a tool to detect cis-acting elements near promoter regions in rice”.

The chains behind the UniProt entries cited, without tags or fusion partners.
UniProt Q0JBA9, entry or part of it: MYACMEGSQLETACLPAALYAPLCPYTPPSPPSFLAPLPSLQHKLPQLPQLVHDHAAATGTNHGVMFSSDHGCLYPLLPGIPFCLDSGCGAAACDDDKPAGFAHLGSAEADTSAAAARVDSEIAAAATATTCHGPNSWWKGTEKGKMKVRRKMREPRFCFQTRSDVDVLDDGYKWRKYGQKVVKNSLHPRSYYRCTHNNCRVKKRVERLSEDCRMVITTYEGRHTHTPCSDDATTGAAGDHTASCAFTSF

Some of the results follow.

This assay deals with OsWRKY34 (Oryza sativa, UniProt Q0JBA9 1-250). In words: protein-binding microarray (RPBM); PBS, 2% BSA, 51.3 ng/ul salmon testes DNA, 50 uM zinc acetate, 200 nM TF, 25 C, 1 h; high values mean tight binding. Particulars: protein: recombinant; tags: N-terminal polyhistidine and DsRed monomer fusion (pET32a); label: CyDye5-dUTP incorporated in the synthesized complementary strand; 3' TTTTT single-stranded linker to array surface; dsDNA, one strand shown. The method, boiled down:
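Using Ni–NTA, transcription factors fused N-terminally to polyhistidine and DsRed were purified after expression in E. coli BL21-CodonPlus. These were incubated at 200 nM with a blocked, double-stranded custom Agilent array for 1 h at 25 °C in a buffer containing 50 µM zinc acetate, and the array was washed. The binding signal is per-feature fluorescence intensity (arbitrary units) on an Axon 4000B scanner.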
As for “AGACTTTCTAGCATTACCCACATTCATACAAATGAATCTACGGAGTCACCTAGTGCAG”, the binding signal is 8580 fluorescence intensity (a.u.).

Take “ATGGTCAAACATGTGCTAAAAAGTCAACGGTGTCAAACATCGGAGTCACCTAGTGCAG”: the binding signal is 17700 fluorescence intensity (a.u.).

For “TCCTAGGTACGCCGTGCGCGGCTGGGCAACACTCACTGACCGGAGTCACCTAGTGCAG”, the binding signal is 8440 fluorescence intensity (a.u.).

With “TCTTCCCATTTTCCACCGAGGAACGTGCCTGGGACGACGACGGAGTCACCTAGTGCAG”, the binding signal is 8160 fluorescence intensity (a.u.).

For “ATTTCACGGCTTTTCCCCGTGCACCGTCCATATTTTTGTTCGGAGTCACCTAGTGCAG”, the binding signal is 10100 fluorescence intensity (a.u.).

For “GGACCACCCTGCCGCGGACATCACCCATCTCGTCATCTCCCGGAGTCACCTAGTGCAG”, the binding signal is 9570 fluorescence intensity (a.u.).

For the sequence “GCTTATGCTATTGTTGCTTCACCGCCGCTGCCTCCTCTTGCGGAGTCACCTAGTGCAG”, the binding signal is 8810 fluorescence intensity (a.u.).

For the sequence “CACATACATACATACAGACATACTACTATCAGCATGTACACGGAGTCACCTAGTGCAG”, the binding signal is 10900 fluorescence intensity (a.u.).

“AATTGTCCAGGCACTCATCAGGCATTTCAGCTAACAAGCTCGGAGTCACCTAGTGCAG”: the binding signal was 8510 fluorescence intensity (a.u.).

Consider “CGTATTGCACAGAGGGTGTCATCTTCCATTTGCCTTGTAACGGAGTCACCTAGTGCAG”, for which the binding signal is 8520 fluorescence intensity (a.u.).

Regarding “CCGCCTCGGCTCGATCCGCCCATATATTTCCCACGCATTCCGGAGTCACCTAGTGCAG”, the binding signal is 10000 fluorescence intensity (a.u.).

On to “CTCATCGTTCGCGTGCCCTTGTCGCTCGCGGCGACGACACCGGAGTCACCTAGTGCAG”, for which the binding signal is 8960 fluorescence intensity (a.u.).

For “ACACAAAATTGATGATGCACCTACCGGTCCGGTAACAATACGGAGTCACCTAGTGCAG”, the binding signal is 8680 fluorescence intensity (a.u.).

“TTTCGTTTTGCTTGCTGTGGGCAGGGGCAGGGGAGGCGGTCGGAGTCACCTAGTGCAG”: the binding signal is 15700 fluorescence intensity (a.u.).

As to “CCCACCATCCTCATCACCACCACCACCACCGCCGCCGCCCCGGAGTCACCTAGTGCAG”, the binding signal was 8750 fluorescence intensity (a.u.).

For the sequence “CTCTCTCAAACCTTTGGCATCTTGGACACTATATATATCCCGGAGTCACCTAGTGCAG”, the binding signal is 8780 fluorescence intensity (a.u.).

“CTGCATCTGCATATGACCTCTGACTTTCGCCTCTCGCGCCCGGAGTCACCTAGTGCAG”: the binding signal was 8620 fluorescence intensity (a.u.).

For “GAAAAGATGACCCCATATTCTCGTGTATTCTTTGACACTTCGGAGTCACCTAGTGCAG”, the binding signal is 9540 fluorescence intensity (a.u.).

In the case of “TCGACCTCCACTCCTCTCCACCCATCGCGGCCATAAGACGCGGAGTCACCTAGTGCAG”, the binding signal was 8590 fluorescence intensity (a.u.).

As to “GGTATTATATTGTTCTGACGATCTTGGTGTGGCTTATGTCCGGAGTCACCTAGTGCAG”, the binding signal is 8820 fluorescence intensity (a.u.).

Consider “CCCAGAGCTTCGCCTCGACCTCGCCTTCGCCTTCGTCGCTCGGAGTCACCTAGTGCAG”, for which the binding signal is 8390 fluorescence intensity (a.u.).

On to “ATTGATGTTTTGTGGCTGTGTGGTGTCGAGAAATGAAATTCGGAGTCACCTAGTGCAG”, for which the binding signal is 9330 fluorescence intensity (a.u.).

Take “TGCGCTCCACTTCACTATATACTCCACTTGTGTTGCTACACGGAGTCACCTAGTGCAG”: the binding signal is 10500 fluorescence intensity (a.u.).

Regarding “TTGCAATTGCAACATGCAGCGGCGAAGACGATCGATCACTCGGAGTCACCTAGTGCAG”, the binding signal was 8280 fluorescence intensity (a.u.).

For the sequence “TGACTTTTTAGTACGTGTTTGATCATTCGTCTTATTCAAACGGAGTCACCTAGTGCAG”, the binding signal was 10800 fluorescence intensity (a.u.).

Take “ATCCGCCTCGCCCCATTCTCCATCGTTTCGTCTCCTCTCTCGGAGTCACCTAGTGCAG”: the binding signal is 10100 fluorescence intensity (a.u.).

On to “TCTCTCTCTCTCTCTCTCCTTATTTTGGCATTGTGTCGTGCGGAGTCACCTAGTGCAG”, for which the binding signal is 9620 fluorescence intensity (a.u.).

For “ATATTCTGGTGTTTTTGTGGCAACCCTGTTGTAAATTGGTCGGAGTCACCTAGTGCAG”, the binding signal was 10200 fluorescence intensity (a.u.).

“TGTTCGTATTTTAAACTCTCTTTTTTTTTCAGTGGTAGATCGGAGTCACCTAGTGCAG”: the binding signal is 9700 fluorescence intensity (a.u.).

Regarding “TCCCGCGCTGCCACCTCCTCTCATCACCTTGAGCCGACTCCGGAGTCACCTAGTGCAG”, the binding signal is 8430 fluorescence intensity (a.u.).

Turning to “ATGTGTTGGTACTGGTTTTAGGTTTGAGTGACGCGATCCACGGAGTCACCTAGTGCAG”, the binding signal was 8110 fluorescence intensity (a.u.).

As to “TAAATGTCACTGTTAACTTTTAGTCACACATTTGATCATTCGGAGTCACCTAGTGCAG”, the binding signal was 9770 fluorescence intensity (a.u.).

Regarding “TTTCCTATTTTCGCTTTAGGTGCCAAATTTAGGGTTTTATCGGAGTCACCTAGTGCAG”, the binding signal is 8970 fluorescence intensity (a.u.).

Consider “TAGTATGAGTGAGTGCTGCCTTTTGCCTTTTTCGAGGTTACGGAGTCACCTAGTGCAG”, for which the binding signal is 8780 fluorescence intensity (a.u.).

As to “TTGCAGCTGTCCTCTCTACCTTAACCCTTTGACCAGTGCTCGGAGTCACCTAGTGCAG”, the binding signal is 9130 fluorescence intensity (a.u.).

On to “ACGCTTGCAGTGTTTACAGTTTGTTTGTTTTTTGCCGAGACGGAGTCACCTAGTGCAG”, for which the binding signal was 9640 fluorescence intensity (a.u.).

As to “TCATCGGCCCCAGACCATTTGGCCATCTATACTTATCTGGCGGAGTCACCTAGTGCAG”, the binding signal was 8500 fluorescence intensity (a.u.).

Take “GTAATCAAGCAATGTTGTTTTCTTCTACATTTCAAATCCACGGAGTCACCTAGTGCAG”: the binding signal was 8520 fluorescence intensity (a.u.).

In the case of “CGTCCACGTCCATCTCCGCCGCTGACAGCACCAGCTCTTCCGGAGTCACCTAGTGCAG”, the binding signal was 10100 fluorescence intensity (a.u.).

Take “ATCTCATCTCACCCTCTCCTCGGCCGCGTAAATCCCATAACGGAGTCACCTAGTGCAG”: the binding signal is 9740 fluorescence intensity (a.u.).

For the sequence “GTCTTTCCTTATCCGGAACTTCATCTATATCCGAGGTCAGCGGAGTCACCTAGTGCAG”, the binding signal was 8970 fluorescence intensity (a.u.).

On to “ATCTGGTTTGGTTGAATCGATCGAGAGGTGGGGAGGGGAGCGGAGTCACCTAGTGCAG”, for which the binding signal is 13900 fluorescence intensity (a.u.).
